Reference: patent publication US20110189751A1
No constants are given. Whether binding was seen depends on the method and setting. In cells and extracts the contact can be indirect. Some binding calls cover weakened binding; strength is not graded here.

By UniProt entry, the sequences of proteins in these tests, tags left out. Where a name states a change or a piece, a line headed by the entry shows the natural chain unless it says otherwise.
UniProt Q6Z7B0: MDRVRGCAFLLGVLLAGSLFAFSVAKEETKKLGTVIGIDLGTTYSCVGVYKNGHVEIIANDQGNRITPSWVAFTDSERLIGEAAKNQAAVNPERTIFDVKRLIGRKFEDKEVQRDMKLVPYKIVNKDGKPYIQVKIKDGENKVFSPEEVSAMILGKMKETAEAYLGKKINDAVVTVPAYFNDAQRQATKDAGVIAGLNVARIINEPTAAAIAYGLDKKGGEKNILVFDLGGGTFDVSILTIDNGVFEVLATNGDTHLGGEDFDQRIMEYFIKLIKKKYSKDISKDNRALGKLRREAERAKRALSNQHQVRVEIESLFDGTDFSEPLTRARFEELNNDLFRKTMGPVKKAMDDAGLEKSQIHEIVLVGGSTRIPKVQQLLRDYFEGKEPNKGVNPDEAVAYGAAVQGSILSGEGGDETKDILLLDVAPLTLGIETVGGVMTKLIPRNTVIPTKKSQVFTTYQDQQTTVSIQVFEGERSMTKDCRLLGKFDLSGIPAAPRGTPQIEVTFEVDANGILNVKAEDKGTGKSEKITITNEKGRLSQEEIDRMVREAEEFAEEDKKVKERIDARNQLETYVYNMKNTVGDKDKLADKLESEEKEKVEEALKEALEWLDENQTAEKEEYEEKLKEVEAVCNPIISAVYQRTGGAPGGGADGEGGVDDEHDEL

Legend:
[1] = biological target: rice endosperm lumenal binding protein (BiP homolog) AAB63469 (Oryza sativa) (UniProt Q6Z7B0); test: co-elution from ATP-agarose, SDS-PAGE
[2] = biological target: rice heat shock protein 70 (Hsp70-ABF95267; gb|ACJ54890.1|) (Oryza sativa Japonica Group) (UniProt P09189); test: co-elution from ATP-agarose, SDS-PAGE
[3] = biological target: rice endosperm lumenal binding protein (BiP homolog) AAB63469 (Oryza sativa) (UniProt Q6Z7B0); test: co-elution from ATP-agarose, SDS-PAGE and peptide mass fingerprinting
[4] = biological target: rice heat shock protein 70 (Hsp70-ABF95267; gb|ACJ54890.1|) (Oryza sativa Japonica Group) (UniProt P09189); test: as above

binding [1]: binds
binding [2]: binds
binding [3]: binds
binding [4]: binds
Substance: recombinant human serum albumin produced in rice (Cellastim, new process B0000C; lots P0153, P0156 and/or P0171) (from UniProt P02768 25-609)
